From the supplement of paper PMC10849652
The list shows a part of the results.

Chains of the proteins cited; added tags and fusions are not shown. Lines headed by an entry give the natural chain unless they say otherwise; changes in a name come on top.
UniProt Q16563: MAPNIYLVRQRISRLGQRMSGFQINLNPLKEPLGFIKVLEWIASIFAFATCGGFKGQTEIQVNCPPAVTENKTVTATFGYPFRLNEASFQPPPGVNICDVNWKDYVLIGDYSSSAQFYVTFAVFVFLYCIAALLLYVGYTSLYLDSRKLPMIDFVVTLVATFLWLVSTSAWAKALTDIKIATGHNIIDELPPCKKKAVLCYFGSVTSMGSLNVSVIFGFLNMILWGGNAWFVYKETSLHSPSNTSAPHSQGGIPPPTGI
UniProt P26639: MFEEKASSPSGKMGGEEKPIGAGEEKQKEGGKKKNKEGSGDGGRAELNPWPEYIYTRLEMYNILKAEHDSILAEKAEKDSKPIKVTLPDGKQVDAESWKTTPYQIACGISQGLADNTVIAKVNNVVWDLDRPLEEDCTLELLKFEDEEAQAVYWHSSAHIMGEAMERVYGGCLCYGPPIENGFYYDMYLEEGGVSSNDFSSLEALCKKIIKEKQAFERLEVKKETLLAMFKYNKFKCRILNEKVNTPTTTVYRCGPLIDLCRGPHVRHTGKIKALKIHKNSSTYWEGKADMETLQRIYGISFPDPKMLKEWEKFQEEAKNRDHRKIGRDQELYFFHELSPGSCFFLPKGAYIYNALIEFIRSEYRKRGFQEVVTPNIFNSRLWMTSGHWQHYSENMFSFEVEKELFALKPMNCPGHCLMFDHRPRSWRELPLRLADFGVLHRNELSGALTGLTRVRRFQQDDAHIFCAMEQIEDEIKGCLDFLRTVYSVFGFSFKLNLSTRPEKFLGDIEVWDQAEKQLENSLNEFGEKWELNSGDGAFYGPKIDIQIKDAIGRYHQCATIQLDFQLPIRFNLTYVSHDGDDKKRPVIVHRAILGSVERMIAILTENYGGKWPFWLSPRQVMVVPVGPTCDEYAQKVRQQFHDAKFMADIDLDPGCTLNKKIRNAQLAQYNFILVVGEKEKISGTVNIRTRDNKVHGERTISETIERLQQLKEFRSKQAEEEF
UniProt Q7RTN6: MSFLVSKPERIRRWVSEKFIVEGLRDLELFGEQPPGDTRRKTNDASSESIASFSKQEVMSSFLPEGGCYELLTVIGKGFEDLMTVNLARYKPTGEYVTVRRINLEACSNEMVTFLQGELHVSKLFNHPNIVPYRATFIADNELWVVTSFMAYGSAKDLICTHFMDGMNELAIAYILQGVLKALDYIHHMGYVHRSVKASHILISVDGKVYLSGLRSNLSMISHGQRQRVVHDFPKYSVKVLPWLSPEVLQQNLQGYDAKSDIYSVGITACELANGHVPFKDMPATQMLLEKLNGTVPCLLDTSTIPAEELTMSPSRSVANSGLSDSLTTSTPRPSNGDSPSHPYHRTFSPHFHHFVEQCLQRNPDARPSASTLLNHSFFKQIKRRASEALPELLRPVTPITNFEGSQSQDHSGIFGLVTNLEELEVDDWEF
UniProt P0DMM9: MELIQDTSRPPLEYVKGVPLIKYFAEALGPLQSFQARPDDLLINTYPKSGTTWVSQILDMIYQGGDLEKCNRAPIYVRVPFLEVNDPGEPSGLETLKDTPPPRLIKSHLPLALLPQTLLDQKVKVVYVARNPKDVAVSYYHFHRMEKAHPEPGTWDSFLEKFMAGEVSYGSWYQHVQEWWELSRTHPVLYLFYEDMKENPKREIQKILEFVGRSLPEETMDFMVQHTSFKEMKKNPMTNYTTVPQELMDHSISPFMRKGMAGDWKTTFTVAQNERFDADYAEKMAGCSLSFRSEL
UniProt O75528: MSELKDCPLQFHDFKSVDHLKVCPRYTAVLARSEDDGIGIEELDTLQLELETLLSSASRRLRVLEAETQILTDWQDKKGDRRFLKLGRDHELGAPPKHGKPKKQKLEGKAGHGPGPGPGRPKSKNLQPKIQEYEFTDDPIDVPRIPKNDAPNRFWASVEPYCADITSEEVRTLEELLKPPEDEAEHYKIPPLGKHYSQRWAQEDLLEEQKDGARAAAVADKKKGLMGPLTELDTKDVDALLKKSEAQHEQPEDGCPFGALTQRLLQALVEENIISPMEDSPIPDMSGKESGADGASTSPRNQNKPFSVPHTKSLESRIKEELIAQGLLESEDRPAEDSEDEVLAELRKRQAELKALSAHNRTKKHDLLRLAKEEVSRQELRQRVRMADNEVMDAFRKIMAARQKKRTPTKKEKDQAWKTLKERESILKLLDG
UniProt O60506: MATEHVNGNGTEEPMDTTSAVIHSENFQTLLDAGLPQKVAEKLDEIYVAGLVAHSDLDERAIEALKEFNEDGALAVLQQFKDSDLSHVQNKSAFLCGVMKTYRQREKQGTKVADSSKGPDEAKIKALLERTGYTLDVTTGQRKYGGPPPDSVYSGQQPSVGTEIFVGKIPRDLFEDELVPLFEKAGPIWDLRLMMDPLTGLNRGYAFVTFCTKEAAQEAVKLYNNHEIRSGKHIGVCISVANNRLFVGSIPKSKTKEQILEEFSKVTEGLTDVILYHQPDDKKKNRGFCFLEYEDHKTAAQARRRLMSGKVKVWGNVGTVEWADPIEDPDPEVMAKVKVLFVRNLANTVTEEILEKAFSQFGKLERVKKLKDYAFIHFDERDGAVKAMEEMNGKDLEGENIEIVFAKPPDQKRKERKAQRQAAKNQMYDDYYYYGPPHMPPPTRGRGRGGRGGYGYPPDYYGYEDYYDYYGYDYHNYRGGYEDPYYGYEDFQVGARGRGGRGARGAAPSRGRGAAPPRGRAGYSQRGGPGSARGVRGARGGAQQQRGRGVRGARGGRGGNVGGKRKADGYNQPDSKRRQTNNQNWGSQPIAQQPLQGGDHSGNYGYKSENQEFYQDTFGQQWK
UniProt Q9UH65: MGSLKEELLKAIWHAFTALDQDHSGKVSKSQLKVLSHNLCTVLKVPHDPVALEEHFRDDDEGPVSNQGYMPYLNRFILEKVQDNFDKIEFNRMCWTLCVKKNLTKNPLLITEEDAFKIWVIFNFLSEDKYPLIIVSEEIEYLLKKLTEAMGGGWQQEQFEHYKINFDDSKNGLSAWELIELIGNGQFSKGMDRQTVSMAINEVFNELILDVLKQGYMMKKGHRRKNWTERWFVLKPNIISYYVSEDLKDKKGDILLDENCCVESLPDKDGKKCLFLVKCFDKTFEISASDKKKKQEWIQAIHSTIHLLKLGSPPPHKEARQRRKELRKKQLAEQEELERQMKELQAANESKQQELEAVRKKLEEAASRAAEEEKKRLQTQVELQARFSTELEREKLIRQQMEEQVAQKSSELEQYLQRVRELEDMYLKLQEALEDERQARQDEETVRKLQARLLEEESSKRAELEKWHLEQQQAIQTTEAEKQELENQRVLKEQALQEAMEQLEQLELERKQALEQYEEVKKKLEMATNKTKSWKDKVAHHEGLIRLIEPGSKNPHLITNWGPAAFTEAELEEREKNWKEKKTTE
UniProt Q9UH99: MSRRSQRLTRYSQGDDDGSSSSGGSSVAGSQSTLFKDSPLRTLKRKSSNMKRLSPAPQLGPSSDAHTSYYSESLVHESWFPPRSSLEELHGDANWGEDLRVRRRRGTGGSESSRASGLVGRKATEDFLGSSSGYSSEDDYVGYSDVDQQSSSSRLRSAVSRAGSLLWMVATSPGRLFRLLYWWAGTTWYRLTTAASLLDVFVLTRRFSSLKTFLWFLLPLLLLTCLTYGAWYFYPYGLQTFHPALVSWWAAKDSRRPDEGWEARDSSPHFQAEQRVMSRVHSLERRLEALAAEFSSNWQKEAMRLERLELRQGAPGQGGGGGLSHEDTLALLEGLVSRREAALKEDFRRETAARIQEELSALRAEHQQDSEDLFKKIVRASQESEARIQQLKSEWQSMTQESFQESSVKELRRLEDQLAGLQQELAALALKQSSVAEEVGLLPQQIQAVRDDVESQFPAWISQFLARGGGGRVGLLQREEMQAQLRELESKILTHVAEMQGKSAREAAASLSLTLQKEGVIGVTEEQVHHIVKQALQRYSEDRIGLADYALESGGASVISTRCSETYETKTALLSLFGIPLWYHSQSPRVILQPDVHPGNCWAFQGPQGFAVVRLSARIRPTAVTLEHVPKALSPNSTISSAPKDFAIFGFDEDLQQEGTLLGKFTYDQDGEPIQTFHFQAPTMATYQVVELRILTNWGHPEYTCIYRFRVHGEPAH
UniProt Q13033: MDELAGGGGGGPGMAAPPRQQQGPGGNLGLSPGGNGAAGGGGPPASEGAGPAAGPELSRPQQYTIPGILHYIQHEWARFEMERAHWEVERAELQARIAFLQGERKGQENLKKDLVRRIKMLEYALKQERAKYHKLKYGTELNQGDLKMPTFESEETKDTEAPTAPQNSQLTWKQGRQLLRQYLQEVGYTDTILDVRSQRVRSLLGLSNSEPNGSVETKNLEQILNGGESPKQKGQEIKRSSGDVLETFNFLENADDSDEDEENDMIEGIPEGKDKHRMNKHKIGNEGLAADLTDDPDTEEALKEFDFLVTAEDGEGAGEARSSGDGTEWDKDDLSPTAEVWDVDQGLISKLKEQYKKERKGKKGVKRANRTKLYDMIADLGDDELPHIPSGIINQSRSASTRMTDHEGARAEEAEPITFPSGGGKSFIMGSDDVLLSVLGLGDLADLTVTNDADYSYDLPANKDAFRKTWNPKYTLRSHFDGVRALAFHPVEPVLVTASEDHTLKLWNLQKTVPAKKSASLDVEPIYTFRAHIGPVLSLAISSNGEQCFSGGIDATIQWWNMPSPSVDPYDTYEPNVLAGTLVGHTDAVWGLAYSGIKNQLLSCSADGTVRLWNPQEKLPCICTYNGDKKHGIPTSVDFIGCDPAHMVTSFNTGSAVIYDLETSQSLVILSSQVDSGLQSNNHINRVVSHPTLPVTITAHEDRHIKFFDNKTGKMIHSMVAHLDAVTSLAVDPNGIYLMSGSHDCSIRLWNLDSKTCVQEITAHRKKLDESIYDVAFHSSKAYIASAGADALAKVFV
UniProt Q8NBJ7: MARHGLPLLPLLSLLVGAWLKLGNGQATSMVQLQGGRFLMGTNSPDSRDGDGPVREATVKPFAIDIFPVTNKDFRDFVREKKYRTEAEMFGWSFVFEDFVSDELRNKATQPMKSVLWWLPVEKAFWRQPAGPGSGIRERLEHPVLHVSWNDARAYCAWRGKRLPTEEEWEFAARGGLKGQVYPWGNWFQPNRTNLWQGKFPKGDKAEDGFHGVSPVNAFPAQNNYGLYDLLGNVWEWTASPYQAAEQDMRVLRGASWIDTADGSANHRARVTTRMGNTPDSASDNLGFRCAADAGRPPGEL
UniProt Q9ULQ0: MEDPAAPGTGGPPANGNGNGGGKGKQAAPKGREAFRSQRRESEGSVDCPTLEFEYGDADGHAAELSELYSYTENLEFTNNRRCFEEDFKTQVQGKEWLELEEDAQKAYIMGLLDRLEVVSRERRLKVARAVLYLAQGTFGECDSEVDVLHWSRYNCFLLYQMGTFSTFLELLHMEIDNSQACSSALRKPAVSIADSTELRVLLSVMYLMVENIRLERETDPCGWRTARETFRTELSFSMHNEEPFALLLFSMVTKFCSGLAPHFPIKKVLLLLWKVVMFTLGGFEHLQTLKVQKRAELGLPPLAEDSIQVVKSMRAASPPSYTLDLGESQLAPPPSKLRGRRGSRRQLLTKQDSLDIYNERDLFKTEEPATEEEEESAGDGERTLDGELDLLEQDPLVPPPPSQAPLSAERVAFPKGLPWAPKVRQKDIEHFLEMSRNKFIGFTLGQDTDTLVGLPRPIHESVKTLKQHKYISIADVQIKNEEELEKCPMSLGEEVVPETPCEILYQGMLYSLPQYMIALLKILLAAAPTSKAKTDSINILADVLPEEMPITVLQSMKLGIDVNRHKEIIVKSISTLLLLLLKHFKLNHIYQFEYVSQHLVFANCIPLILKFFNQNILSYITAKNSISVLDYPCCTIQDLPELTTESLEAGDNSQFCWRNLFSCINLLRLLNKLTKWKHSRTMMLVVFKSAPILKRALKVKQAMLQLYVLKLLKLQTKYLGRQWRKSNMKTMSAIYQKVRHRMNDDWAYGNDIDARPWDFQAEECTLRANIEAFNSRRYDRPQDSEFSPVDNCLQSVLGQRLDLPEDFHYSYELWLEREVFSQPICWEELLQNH

Tests used:
Experiment in all cases: log2 fold change, soluble protein after heating vs DMSO (PISA); higher = thermal stabilisation; K562 cells, 10 uM, 30 min; active = over 0.2 and 3.5 SD of the protein, either way, in both replicates (recomputed)
[1] = compound: NC(=O)Nc1cc(-c2cccc(F)c2)sc1C(=O)N[C@H]1CCCNC1
In short: (§1)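 Aliquots of K562 cells (2×10^6 cells/mL) treated with 10 μM compound for 30 min were heated for 3 min over 48°C-58°C. After pooling and extraction in PBS with 0.5% NP-40 at 4°C, soluble protein from a 21,000xg, 90 min spin was quantified by TMTpro 16plex LC-MS/MS with channel sums equalised. Thermal stability is expressed against control samples, from duplicates, as a log2 fold change.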

[2] = compound: NC(=O)c1cnc(N[C@@H]2CCCC[C@@H]2N)nc1Nc1cccc(-n2nccn2)c1
In short: as §1

[3] = compound: NC1(c2ccc(-c3nc4ccn5c(=O)[nH]nc5c4cc3-c3ccccc3)cc2)CCC1
In short: as §1

[4] = compound: NCC(=O)Nc1ccc(-n2nc(C(F)(F)F)cc2-c2ccc3c(ccc4ccccc43)c2)cc1
In short: as §1

entinostat = compound: Nc1ccccc1NC(=O)c1ccc(CNC(=O)OCc2cccnc2)cc1 [entinostat]
In short: as §1

vorinostat = compound: O=C(CCCCCCC(=O)Nc1ccccc1)NO [vorinostat]
In short: as §1

citarinostat = compound: O=C(CCCCCCNC(=O)c1cnc(N(c2ccccc2)c2ccccc2Cl)nc1)NO [citarinostat]
In short: as §1

silmitasertib = compound: O=C(O)c1ccc2c(c1)nc(Nc1cccc(Cl)c1)c1ccncc12 [silmitasertib]
In short: as §1

[5] = compound: O=C1NC(=O)C(c2cnc3ccccn23)=C1c1cn2c3c(cc(F)cc13)CN(C(=O)N1CCCCC1)CC2
In short: as §1

[6] = compound: c1cc(OCCN2CCCCC2)cc(-c2n[nH]c3ccc(-c4nnc[nH]4)cc23)c1
In short: as §1

Measured: log2 fold change

STK39 (UniProt Q9UEW8)
inactive: [1] -0.064 | [2] 0.034 | [3] -0.146 | [4] -0.028 | entinostat 0.069 | vorinostat 0.063 | citarinostat 0.051 | silmitasertib 0.003 | [5] 0.003 | [6] -0.072

SYPL1 (UniProt Q16563)
inactive: [1] -0.037 | [2] 0.039 | [3] -0.058 | [4] -0.03 | entinostat -0.042 | vorinostat -0.048 | citarinostat 0.035 | silmitasertib 0.03 | [5] 0.022 | [6] -0.033

TARS1 (UniProt P26639)
inactive: [1] -0.02 | [2] -0.079 | [3] -0.184 | [4] -0.04 | entinostat 0.02 | vorinostat 0.04 | citarinostat 0.035 | silmitasertib -0.019 | [5] -0.022 | [6] -0.018

STRADA (UniProt Q7RTN6)
inactive: [1] -0.034 | [2] -0.008 | [3] 0.027 | [4] -0.004 | entinostat -0.037 | vorinostat 0.054 | citarinostat 0.034 | silmitasertib -0.004 | [5] -0.095 | [6] -0.013

SULT1A3 isoform 3 (UniProt P0DMM9)
inactive: [1] -0.097 | [2] -0.01 | [3] -0.155 | [4] 0.035 | entinostat 0.117 | vorinostat 0.043 | citarinostat 0.117 | silmitasertib 0.081 | [5] -0.061 | [6] 0.14

TADA3 (UniProt O75528)
inactive: [1] -0.003 | [2] -0.014 | [3] 0 | [4] -0.04 | entinostat 0.036 | vorinostat -0.015 | citarinostat 0.012 | silmitasertib 0 | [5] 0.019 | [6] -0.057

SYNCRIP (UniProt O60506)
inactive: [1] 0 | [2] 0.019 | [3] 0.171 | [4] 0.032 | entinostat -0.043 | vorinostat 0 | citarinostat -0.116 | silmitasertib 0.107 | [5] 0.094 | [6] -0.118

TACC3 (UniProt Q9Y6A5)
inactive: [1] 0.022 | [2] -0.06 | [3] 0.034 | [4] -0.002 | entinostat -0.017 | vorinostat 0 | citarinostat -0.012 | silmitasertib 0.028 | [5] -0.032 | [6] 0.023

SWAP70 (UniProt Q9UH65)
inactive: [1] 0.011 | [2] 0.001 | [3] -0.03 | [4] -0.007 | entinostat 0.01 | vorinostat 0.012 | citarinostat 0.052 | silmitasertib 0.004 | [5] -0.082 | [6] -0.012

SUN2 (UniProt Q9UH99)
inactive: [1] 0.002 | [2] 0.011 | [3] -0.054 | [4] -0.03 | entinostat 0.054 | vorinostat 0.018 | citarinostat 0.019 | silmitasertib 0.007 | [5] 0.097 | [6] -0.087

TACO1 (UniProt Q9BSH4)
inactive: [1] -0.054 | [2] -0.123 | [3] -0.145 | [4] 0.026 | entinostat 0.144 | vorinostat 0.127 | citarinostat 0.189 | silmitasertib -0.011 | [5] -0.141 | [6] 0.092

STRN3 (UniProt Q13033)
inactive: [1] -0.014 | [2] -0.052 | [3] 0.003 | [4] 0.014 | entinostat 0.014 | vorinostat 0.025 | citarinostat -0.033 | silmitasertib -0.003 | [5] -0.068 | [6] -0.025

2 consecutive entries out of the list so far:
SWAP70 (UniProt Q9UH65)
inactive: [1] 0.011 | [2] 0.001 | [3] -0.03 | [4] -0.007 | entinostat 0.01 | vorinostat 0.012 | citarinostat 0.052 | silmitasertib 0.004 | [5] -0.082 | [6] -0.012

SUN2 (UniProt Q9UH99)
inactive: [1] 0.002 | [2] 0.011 | [3] -0.054 | [4] -0.03 | entinostat 0.054 | vorinostat 0.018 | citarinostat 0.019 | silmitasertib 0.007 | [5] 0.097 | [6] -0.087

Remaining list, next part

SUMF2 (UniProt Q8NBJ7)
inactive: [1] -0.029 | [2] -0.079 | [3] -0.066 | [4] -0.027 | entinostat 0.059 | vorinostat -0.042 | citarinostat -0.022 | silmitasertib 0.037 | [5] -0.015 | [6] -0.097

SYNE1 (UniProt Q8NF91)
inactive: [1] -0.006 | [2] -0.031 | [3] -0.008 | [4] 0.04 | entinostat -0.027 | vorinostat 0.114 | citarinostat 0.106 | silmitasertib -0.03 | [5] -0.244 | [6] 0.006

STRIP2 (UniProt Q9ULQ0)
inactive: [1] 0.25 | [2] -0.028 | [3] -0.043 | [4] -0.016 | entinostat 0.061 | vorinostat -0.042 | citarinostat 0.07 | silmitasertib 0.122 | [5] 0.063 | [6] -0.068
